According to article doi:10.1101/2024.06.25.600532:
Results are given in words; binding and its absence hold for the method and conditions named. In cells and extracts the contact can be indirect. Some entries that bind do so weakly or less than the wild type. For some assays here: Tags and fused reporters may be left off the sequences shown.

Assays:
[1] = biological target: LYAR (Co-IP in K562 and HUDEP-2 cells) (UniProt Q9NX58); test: co-IP
LYAR (GST pull-down) = LYAR (GST pull-down) (UniProt Q9NX58); test: pull-down

Row | binding [1] | binding (LYAR (GST pull-down)) | Binder
1 | binds |  | Fibrillarin (FBL) (protein, UniProt P22087 1-321) MKPGFSPRGGGFGGRGGFGDRGGRGGRGGFGGGRGRGGGFRGRGRGGGGGGGGGGGGGRGGGGFHSGGNRGRGRGGKRGNQSGKNVMVEPHRHEGVFICRGKEDALVTKNLVPGESVYGEKRVSISEGDDKIEYRAWNPFRSKLAAAILGGVDQIHIKPGAKVLYLGAASGTTVSHVSDIVGPDGLVYAVEFSHRSGRDLINLAKKRTNIIPVIEDARHPHKYRMLIAMVDVIFADVAQPDQTRIVALNAHTFLRNGGHFVISIKANCIDSTASAEAVFASEVKKMQQENMKPQEQLTLEPYERDHAVVVGVYRPPPKVKN
2 |  | binds | FBL (GST pull-down) (protein, UniProt P22087 1-321) MKPGFSPRGGGFGGRGGFGDRGGRGGRGGFGGGRGRGGGFRGRGRGGGGGGGGGGGGGRGGGGFHSGGNRGRGRGGKRGNQSGKNVMVEPHRHEGVFICRGKEDALVTKNLVPGESVYGEKRVSISEGDDKIEYRAWNPFRSKLAAAILGGVDQIHIKPGAKVLYLGAASGTTVSHVSDIVGPDGLVYAVEFSHRSGRDLINLAKKRTNIIPVIEDARHPHKYRMLIAMVDVIFADVAQPDQTRIVALNAHTFLRNGGHFVISIKANCIDSTASAEAVFASEVKKMQQENMKPQEQLTLEPYERDHAVVVGVYRPPPKVKN
